According to PubChem BioAssay AID1053174 (Broad Institute, 2014):
In all, about 1,500 compounds went through this assay and about 140 (9.3%) were called active. How the calls were made is not given here. This is a selection; strong and weak results do not stand in their true shares.

test: false positives in methylated H4 peptide AlphaScreen detection – biochemical, cherry-picked samples, artefact control for NSD2 inhibitor project, dose response (AID 1053174); conditions: AlphaScreen artifact counterscreen, preloaded methylated H4 peptide; at 10 µM (top of the series);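 further: 0% = median of neutral control wells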

| SMILES | activity change, negative = signal loss |
| --- | --- |
| Cc1c(C(=O)O)cccc1-n1c(C)cc(/C=C2\C(=O)NC(=O)N(c3ccc4c(c3)OCO4)C2=O)c1C | inactive: -7.69% |
| CC(=O)OC1C2(CC3N4C(=O)C5(CO)SSC4(CC31O)C(=O)N5C)OC(C)C(C)(C)C2=O (configuration not stated) | inactive: -1.42% |
